Measured values as given in PubChem BioAssay AID2685 (National Center for Advancing Translational Sciences (NCATS), 2010).
The list shows a part of the results. These are further read-outs of the screen, such as a control signal, another cell line or another target. No call is given for them. Compounds called inactive in the main read-out are mostly missing here. The note in brackets gives the kind of curve behind each potency; many fits are weak.

Experiment: qHTS Assay for Lipid Storage Modulators in Drosophila S3 Cells;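 on cell number change: cells counted by Cell Tracker Red CMTPX staining in the red channel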
Settings: BODIPY lipid droplet fluorescence, 18-24 h; for cell number change: measured here: cell count max response, cells fed with added oleic acid
How it was run: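 Drosophila S3 cells loaded with oleic acid (400 uM, as added) and compounds at several concentrations; lipid droplets imaged by 488-nm laser-scanning cytometry, 500–530 nm intensity and object ratio to cell channel. Percent activity normalized to 20 uM Triacsin C.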

[1] = measured here: lipid fluorescence (Fed channel) AC50, cells fed with added oleic acid
[2] = measured here: cell number channel AC50, cells fed with added oleic acid

Row | SMILES | cell number change | AC50 [1] | AC50 [2]
1 | CCOc1ccccc1C(=O)NCC(=O)O | 11.1% | 2.31 µM [falling, full curve, poor fit] | –
2 | CCOC(=O)c1c(NC(=O)COC(=O)CCNS(=O)(=O)c2ccccc2)sc(C(=O)N(C)C)c1C | 50% | – | 29.1 µM [rising, single point]
3 | O=C(Nc1nnc(-c2ccccc2)s1)c1ccccc1F | 20.5% | – | –
4 | Clc1ccc(-c2ccc(CNCc3ccccn3)o2)cc1 | 0.0499% | 29.1 µM [rising, single point] | –
5 | COC(=O)c1ccc(C2C(C(C)=O)=C(O)C(=O)N2CCO)cc1 (stereo unspecified) | -22.1% | 29.1 µM [falling, single point] | –
6 | COc1ccc(OC)c(/C=C/C(=O)c2ccc(Cl)cc2)c1 | -8.93% | – | –
7 | CC(=O)Oc1ccc(CCC(C)OC(C)=O)cc1 (stereo unspecified) | -35.2% | 1.16 µM [falling, full curve] | 1.03 µM [falling, full curve]
8 | COc1ccc(N2CC(C(=O)N[C@@H](CC(C)C)C(=O)NC3CCCC3)CC2=O)cc1 (stereo partly specified) | -2.83% | 29.1 µM [rising, partial curve] | –
9 | COC(=O)c1ccc(S(=O)(=O)N2CCCCCC2)cc1 | -6.13% | 0.0058 µM [falling, full curve, poor fit] | 0.00517 µM [falling, full curve, poor fit]
10 | CCC(=O)Nc1cccc(C(=O)/C=C/c2ccc(F)cc2)c1 | -50.4% | 12.6 µM [falling, partial curve] | 22.4 µM [falling, single point]
11 | Cc1cccc(OC(C)C(=O)Nc2cc(Cl)ccc2-n2cncn2)c1 (stereo unspecified) | -6.49% | 1.84 µM [falling, single point] | 1.84 µM [falling, single point]
12 | COc1ccc(S(=O)(=O)c2c(O)cc(C)c(NS(=O)(=O)c3ccccc3)c2C)cc1 | -23.8% | 29.1 µM [falling, single point] | –
13 | CC(C(=O)NCc1ccccc1)N1C(=O)c2ccccc2C1=O (stereo unspecified) | -5.28% | – | –
14 | COc1ccccc1-c1nnc2sc(-c3cnccn3)nn12 | 15.5% | 4.61 µM [rising, partial curve] | –
15 | O=C(Oc1ccccc1C(=O)Nc1ccccc1)c1ccccc1Br | -41.3% | 18.4 µM [falling, partial curve] | 25.9 µM [falling, partial curve]
16 | COC(=O)[C@H](Cc1ccccc1)NC(=O)NCC1CCCO1 (stereo partly specified) | -39.1% | 0.92 µM [falling, full curve, poor fit] | 1.16 µM [falling, full curve]
17 | Cc1noc(C)c1CSc1nc2sc(C)c(C)c2c(=O)n1C1CCCC1 | 9.34% | 8.2 µM [rising, partial curve] | –
18 | Cc1ccc(S(=O)(=O)N2CCN(CC(=O)N/N=C/C=C/c3ccccc3)CC2)cc1 | 52.6% | 23.1 µM [rising, single point] | 6.51 µM [rising, full curve, poor fit]
19 | Cc1c(NS(=O)(=O)c2ccc3c(c2)c(=O)n(C)c(=O)n3C)c(=O)n(-c2ccccc2)n1C | 19.8% | – | 0.103 µM [rising, full curve, poor fit]
20 | CCC(C)N1C(=O)C2C(C(=O)Nc3cccc(OC)c3)C3C=CC2(O3)C1C(=O)NC1CCCCC1C (stereo unspecified) | -12.3% | – | –

Row | SMILES | cell number change | AC50 [1] | AC50 [2]
21 | CN(NC(=O)c1ccco1)c1nc2ccccc2nc1C(F)(F)F | 115% | – | 18.4 µM [rising, single point]
22 | CC(C)(C)NC(=O)COC(=O)CCC(=O)c1ccc(Cl)cc1 | -24.2% | 2.91 µM [falling, partial curve, poor fit] | 3.66 µM [falling, single point]
23 | CCOC(=O)c1cc(C(O)(C(F)(F)F)C(F)(F)F)c(/N=C/N(C)C)o1 | 23.1% | 2.06 µM [rising, single point] | –
24 | CCN(CC)C(=O)C(=O)c1cccn1-c1c(Cl)cccc1C#N | 25.9% | 13 µM [rising, partial curve] | –
25 | C=CCON1C(=O)c2ccccc2C1=O | -9.68% | – | –
26 | CN1CCN(C(=O)CCc2nc(-c3ccc(Cl)cc3)no2)CC1 | 19.1% | – | –
27 | CC(=O)C1=C(C)NC(SCC(=O)c2ccc(C)cc2)=C(C#N)C1c1ccco1 (stereo unspecified) | – | 2.31 µM [rising, partial curve] | 2.91 µM [rising, partial curve]
28 | O=C(CN1CCN(Cc2ccccc2)C1=O)NCc1ccc(Cl)cc1 | -32.4% | – | 14.6 µM [falling, partial curve]
29 | O=C(c1ccc(NS(=O)(=O)c2cccc([N+](=O)[O-])c2)cc1)N1CCN(C(=O)c2ccco2)CC1 | – | 8.2 µM [falling, partial curve] | –
30 | Cc1ccc(OCC(=O)Nc2ccc(NC(=O)c3ccccc3)cc2)cc1C | 59.7% | 6.51 µM [falling, single point] | –
31 | COC(=O)c1cc(C(=O)OCC(=O)c2ccc3c(c2)NC(=O)CO3)cc([N+](=O)[O-])c1 | -1.81% | – | –
32 | CCC(NC(=O)c1ccccc1NC(=O)c1ccco1)C(=O)NNC(=O)c1ccc(OC)cc1 (stereo unspecified) | -15.5% | – | 0.461 µM [falling, full curve, poor fit]
33 | COc1ccc(C2CC(c3ccccc3)=NN2C(=O)COC(=O)C2CC2)cc1 (stereo unspecified) | 14.8% | 32.6 µM [falling, single point] | –
34 | CCCCCCCCCCOC(=O)NC1CCS(=O)(=O)C1 (stereo unspecified) | -11.4% | 4.11 µM [falling, partial curve] | 5.8 µM [falling, single point]
35 | CCN(CC)CCn1c(=S)[nH]c2cc(C(=O)NCc3ccc(C)cc3)ccc2c1=O | – | 29.1 µM [rising, single point] | 1.84 µM [rising, partial curve]
36 | CCCC(=O)Nc1cc(OC)c(NC(=O)NC2CCCCC2)cc1OC | -9.73% | – | –
37 | COc1ccc(CCNC(=O)c2ccc(OCC(=O)N3CCOCC3)c(OC)c2)cc1OC | -33.2% | – | 5.62 µM [falling, full curve]
38 | S=c1[nH]c2ccccc2n1Cc1ccccc1 | 5.74% | – | –
39 | COc1ccc(Oc2ccc(N/C=C3\CCCC3=O)cc2)cc1 | 5.49% | 29.1 µM [rising, single point] | –
40 | Cc1noc(C)c1C(=O)NCCc1ccc(Cl)cc1 | – | 0.291 µM [falling, partial curve, poor fit] | –

Row | SMILES | cell number change | AC50 [1] | AC50 [2]
41 | OC(CCN1CCC2(CC1)OCCO2)C(F)(F)F (stereo unspecified) | -20.9% | 0.00517 µM [falling, full curve, poor fit] | 0.0291 µM [falling, full curve, poor fit]
42 | Cc1c(C(=O)OCC(=O)NCCc2ccc(S(N)(=O)=O)cc2)oc2ccccc12 | -28.5% | 0.231 µM [falling, full curve] | –
43 | O=C(Nc1cc(Cl)ccc1O)C1CC(c2ccccc2O)=NO1 (stereo unspecified) | -27.7% | 0.146 µM [rising, full curve, poor fit] | –
44 | CC(C)c1ccc2c(c1)CCC1C(C)(CN)CCCC21C (stereo unspecified) | -31.3% | 29.1 µM [falling, single point] | 23.1 µM [falling, single point]
45 | COc1ccccc1-c1cc(C(=O)NCc2cccs2)no1 | 38% | 23.1 µM [falling, partial curve, poor fit] | 2.31 µM [rising, partial curve, poor fit]
46 | Cc1nnc(NN)n(N)c1=O | 3.41% | 0.00461 µM [falling, full curve, poor fit] | –
47 | CC(=O)c1cc(C(=O)c2ccccc2)sc1Nc1ccccc1 | -13.6% | – | –
48 | COc1ccc(C(=O)N(Cc2nc(-c3ccc(C)cc3)no2)C(C)C)cc1OC | 43.1% | 9.2 µM [rising, partial curve] | 11.6 µM [rising, partial curve, poor fit]
49 | CN1CC(C(=O)Nc2ccc(F)c(Cl)c2)CC1=O (stereo unspecified) | 1.57% | 29.1 µM [rising, partial curve, poor fit] | –
50 | COc1ccc(C2(O)CCN(Cc3nnnn3Cc3ccc(C)cc3)CC2)cc1 | 26% | 29.1 µM [rising, single point] | –
51 | COc1ccc(OCC(=O)Nc2ccc(NC(=O)c3ccccc3Cl)c(OC)c2)cc1 | 10.3% | – | –
52 | O=C(NC(=O)c1ccccc1O)c1ccc2c(c1)CCO2 | -9.03% | – | –
53 | CCOC(=O)c1[nH]c2ccc(OC)cc2c1NC(=S)N1CCN(c2cccc(C)c2C)CC1 | -70.3% | – | 20.6 µM [falling, single point]
54 | N#C/C(=C\c1ccccn1)c1ccccn1 | -1.39% | 6.51 µM [rising, partial curve] | 0.411 µM [rising, full curve, poor fit]
55 | COc1ccc(NC(=O)CSc2nnc(Cc3cccs3)n2-c2ccc(C)cc2)cc1 | – | 0.58 µM [rising, single point] | –
56 | COc1ccc(C)cc1NC(=O)CSc1nnnn1C1CCCC1 | 8.97% | 29.1 µM [falling, single point] | –
57 | COC(=O)C1=C(C(=O)OC)[C@@H]2N(C)c3ccc(OC)cc3[C@@]23C[C@@H](C(=O)OC)N(S(=O)(=O)c2ccc(OC)cc2)C3=N1 | 18% | 25.9 µM [rising, single point] | –
58 | Cc1cccc(-n2c(SCCC(=O)O)nnc2-c2cccs2)c1C | -9.74% | 0.146 µM [falling, partial curve, poor fit] | 0.0366 µM [falling, full curve]

Some values from the entries so far:
For cell number change, `O=C(NC(=O)c1ccccc1O)c1ccc2c(c1)CCO2` is listed with -9.03%
For cell number change, `O=C(Nc1cc(Cl)ccc1O)C1CC(c2ccccc2O)=NO1` (stereo unspecified) is listed with -27.7%
For AC50 [2], `N#C/C(=C\c1ccccn1)c1ccccn1` is listed with 0.411 µM [rising, full curve, poor fit]
For AC50 [2], `OC(CCN1CCC2(CC1)OCCO2)C(F)(F)F` (stereo unspecified) is listed with 0.0291 µM [falling, full curve, poor fit]
For cell number change, `CC(=O)c1cc(C(=O)c2ccccc2)sc1Nc1ccccc1` is listed with -13.6%
